Measured values reported in patent US20110159588A1.
Results are given in words; binding and its absence hold for the method and conditions named. Binding seen in cells or lysates may run through a third protein. Some entries that bind do so weakly or less than the wild type.

Tests used:
[1] = target: T1, full-length TMEFF2 (TMEFF2-FL) expressed on the surface of 293 cells (human) (UniProt Q9UIK5); assay: co-immunoprecipitation with anti-TMEFF2 pAb from transfected 293 cells, anti-PDGF-A blot
T1 sequence: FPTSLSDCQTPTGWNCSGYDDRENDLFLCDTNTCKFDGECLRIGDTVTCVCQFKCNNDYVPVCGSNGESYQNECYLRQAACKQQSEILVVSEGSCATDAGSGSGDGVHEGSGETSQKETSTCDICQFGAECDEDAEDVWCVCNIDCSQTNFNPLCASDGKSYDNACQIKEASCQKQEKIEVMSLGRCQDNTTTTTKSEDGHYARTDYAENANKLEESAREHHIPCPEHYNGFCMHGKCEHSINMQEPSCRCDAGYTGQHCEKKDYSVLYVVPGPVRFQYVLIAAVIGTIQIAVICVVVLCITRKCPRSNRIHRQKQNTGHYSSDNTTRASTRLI

[2] = target: gD-tagged full-length TMEFF2 expressed on the surface of 293 cells (human) (UniProt Q9UIK5); assay: co-immunoprecipitation with anti-gD mAb from transfected 293 cells, anti-PDGF-A blot

Substance: recombinant human PDGF-AA (from UniProt P04085 87-211) (ligand)
- binding [1]: binds
- binding [2]: binds
